# Laboratory results: paper PMC5996148
# Amino acid sequences for entries named in this document (tags omitted). A change or cut given only in a name is not applied to a line headed by its entry.
# UniProt Q9BRP8: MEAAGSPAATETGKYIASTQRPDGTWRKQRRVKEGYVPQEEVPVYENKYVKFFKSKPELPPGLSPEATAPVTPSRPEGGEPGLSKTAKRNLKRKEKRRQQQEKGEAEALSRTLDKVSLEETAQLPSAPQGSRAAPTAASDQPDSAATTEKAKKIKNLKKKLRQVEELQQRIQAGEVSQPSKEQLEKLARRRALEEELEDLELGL
# UniProt Q96JL9: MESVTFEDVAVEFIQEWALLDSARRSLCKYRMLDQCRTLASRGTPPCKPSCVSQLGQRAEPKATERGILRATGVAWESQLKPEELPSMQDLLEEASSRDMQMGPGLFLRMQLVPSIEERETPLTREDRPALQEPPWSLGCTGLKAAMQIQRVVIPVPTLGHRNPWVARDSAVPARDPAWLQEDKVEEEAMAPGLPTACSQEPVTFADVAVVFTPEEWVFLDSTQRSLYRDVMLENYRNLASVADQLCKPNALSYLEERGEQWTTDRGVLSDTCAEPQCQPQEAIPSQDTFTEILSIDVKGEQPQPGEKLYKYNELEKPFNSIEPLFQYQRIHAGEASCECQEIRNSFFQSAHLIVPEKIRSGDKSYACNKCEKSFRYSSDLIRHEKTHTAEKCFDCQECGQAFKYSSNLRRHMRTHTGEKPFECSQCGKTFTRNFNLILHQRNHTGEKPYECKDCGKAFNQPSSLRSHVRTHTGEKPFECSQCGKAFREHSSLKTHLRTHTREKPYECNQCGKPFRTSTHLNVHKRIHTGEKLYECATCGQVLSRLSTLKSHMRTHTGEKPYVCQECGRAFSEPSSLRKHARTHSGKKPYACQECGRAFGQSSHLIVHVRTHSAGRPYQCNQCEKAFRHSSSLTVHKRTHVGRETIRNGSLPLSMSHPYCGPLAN
# UniProt Q8TF39: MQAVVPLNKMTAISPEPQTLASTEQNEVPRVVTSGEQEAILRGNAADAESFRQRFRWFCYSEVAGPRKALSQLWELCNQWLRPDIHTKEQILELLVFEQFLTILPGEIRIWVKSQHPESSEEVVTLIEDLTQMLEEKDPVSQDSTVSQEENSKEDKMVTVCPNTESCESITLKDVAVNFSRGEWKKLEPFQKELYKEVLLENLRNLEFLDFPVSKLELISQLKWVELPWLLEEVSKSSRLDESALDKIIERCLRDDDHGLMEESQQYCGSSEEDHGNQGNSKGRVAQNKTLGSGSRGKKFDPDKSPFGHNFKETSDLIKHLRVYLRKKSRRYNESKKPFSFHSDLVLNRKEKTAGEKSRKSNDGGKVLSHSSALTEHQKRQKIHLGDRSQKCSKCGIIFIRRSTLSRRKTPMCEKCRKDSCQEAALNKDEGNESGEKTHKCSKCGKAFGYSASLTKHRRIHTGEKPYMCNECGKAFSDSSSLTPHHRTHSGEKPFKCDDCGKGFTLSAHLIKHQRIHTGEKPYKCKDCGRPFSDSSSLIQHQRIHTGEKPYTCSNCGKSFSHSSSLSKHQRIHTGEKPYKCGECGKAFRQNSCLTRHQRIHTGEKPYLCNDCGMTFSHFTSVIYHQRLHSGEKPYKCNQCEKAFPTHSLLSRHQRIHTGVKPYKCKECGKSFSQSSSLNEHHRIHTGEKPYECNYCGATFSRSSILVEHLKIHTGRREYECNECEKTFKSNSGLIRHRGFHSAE
# Where “and” joins values, the source holds several entries; their conditions need not be identical. Equal entries are not always repeated. This is one part of the list. For some assays here: The source does not settle which construct or isoform was used.
# Tests used:
# Assay in all cases: protein microarray (ProtoArray v5.0), streptavidin-Alexa Fluor 647
# Conditions in all cases: 3'-biotin; 20 mM Tris (pH 7.5), 5 mM MgCl2, 100 mM KCl, 0.1% Tween-20, A/T-rich and random oligonucleotide blockers; temperature not stated; high values mean tight binding
# [1] = target: T1, WDR57 (UniProt Q96DI7)
# T1 sequence: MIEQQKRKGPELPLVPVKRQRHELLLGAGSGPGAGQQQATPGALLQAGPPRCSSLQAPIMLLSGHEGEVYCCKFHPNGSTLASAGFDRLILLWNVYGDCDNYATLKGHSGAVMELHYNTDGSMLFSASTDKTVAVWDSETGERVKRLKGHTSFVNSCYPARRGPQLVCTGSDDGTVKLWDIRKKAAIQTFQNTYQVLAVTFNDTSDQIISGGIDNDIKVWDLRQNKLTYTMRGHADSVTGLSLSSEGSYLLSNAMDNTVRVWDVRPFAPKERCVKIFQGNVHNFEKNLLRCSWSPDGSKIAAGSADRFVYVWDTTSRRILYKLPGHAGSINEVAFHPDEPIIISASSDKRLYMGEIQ
# [2] = tested on: WFDC6 (human)
# [3] = target: WIBG (UniProt Q9BRP8)
# [4] = tested on: WTAP (human)
# [5] = tested on: Wilms tumor-associated protein (human)
# [6] = tested on: YIPF1 (human)
# [7] = tested on: YKT6 (human)
# [8] = tested on: YSK4 (human)
# [9] = tested on: ZAP70 (human)
# [10] = tested on: ZBED2 (human)
# [11] = tested on: ZBTB25 (human)
# [12] = tested on: ZBTB8OS (human)
# [13] = tested on: ZMYM6 (human)
# [14] = tested on: ZNF174 (human)
# [15] = tested on: ZNF3 (human)
# [16] = target: ZNF333 (UniProt Q96JL9)
# [17] = target: ZNF483 (UniProt Q8TF39)
# [18] = tested on: ZNF616 (human)
# [19] = tested on: ZNF695 (human)
# [20] = tested on: ZNF718 (human)
sequence,measurement,setting,value
GGTGACAGGGGTATGGGGAGGGG [G4-2 biotinylated (Ct1)],binding signal,[1],3.75 z-score
same,binding signal,[2],-0.397 z-score
same,binding signal,[3],4.08 z-score
same,binding signal,[4],-0.396 z-score and -0.379 z-score
same,binding signal,[5],4.03 z-score
same,binding signal,[6],-0.369 z-score
same,binding signal,[7],-0.401 z-score
same,binding signal,[8],-0.372 z-score
same,binding signal,[9],-0.361 z-score
same,binding signal,[10],-0.38 z-score
same,binding signal,[11],-0.385 z-score
same,binding signal,[12],-0.399 z-score
same,binding signal,[13],-0.398 z-score
same,binding signal,[14],-0.387 z-score
same,binding signal,[15],-0.395 z-score
same,binding signal,[16],-0.389 z-score
same,binding signal,[17],-0.396 z-score
same,binding signal,[18],-0.387 z-score
same,binding signal,[19],-0.397 z-score
same,binding signal,[20],-0.377 z-score

# Part of the list above, bar-delimited:
sequence | measurement | setting | value
GGTGACAGGGGTATGGGGAGGGG [G4-2 biotinylated (Ct1)] | binding signal | [14] | -0.387 z-score
same | binding signal | [18] | -0.387 z-score
